Experimental data published in article PMC12561351.
No constants are given. Whether binding was seen depends on the method and setting. Binding seen in cells or lysates may run through a third protein. Some entries that bind do so weakly or less than the wild type. Blank lines part the entries; values can stand above or below the substance they belong to.

Protein sequences, listed by entry. Tags and fused reporters are not part of them.
UniProt Q15910: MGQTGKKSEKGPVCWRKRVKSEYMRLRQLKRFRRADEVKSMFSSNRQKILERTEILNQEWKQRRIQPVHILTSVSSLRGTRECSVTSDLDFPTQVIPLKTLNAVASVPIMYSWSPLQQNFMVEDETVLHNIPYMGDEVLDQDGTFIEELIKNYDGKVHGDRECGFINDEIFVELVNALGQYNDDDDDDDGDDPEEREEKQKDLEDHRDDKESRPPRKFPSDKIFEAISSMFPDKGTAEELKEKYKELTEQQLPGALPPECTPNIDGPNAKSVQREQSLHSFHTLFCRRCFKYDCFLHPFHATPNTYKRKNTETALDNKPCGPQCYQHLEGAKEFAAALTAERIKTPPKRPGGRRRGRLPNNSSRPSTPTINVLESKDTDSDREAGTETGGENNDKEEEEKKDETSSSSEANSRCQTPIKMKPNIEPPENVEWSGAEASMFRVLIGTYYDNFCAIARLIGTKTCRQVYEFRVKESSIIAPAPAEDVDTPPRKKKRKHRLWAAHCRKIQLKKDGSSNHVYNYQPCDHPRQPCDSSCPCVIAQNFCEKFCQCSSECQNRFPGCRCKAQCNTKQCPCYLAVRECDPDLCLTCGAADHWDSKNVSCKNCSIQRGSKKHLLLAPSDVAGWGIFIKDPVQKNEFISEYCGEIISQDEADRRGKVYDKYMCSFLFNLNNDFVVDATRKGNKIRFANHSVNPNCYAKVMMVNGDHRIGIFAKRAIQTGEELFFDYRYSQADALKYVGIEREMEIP
UniProt Q9HAU4: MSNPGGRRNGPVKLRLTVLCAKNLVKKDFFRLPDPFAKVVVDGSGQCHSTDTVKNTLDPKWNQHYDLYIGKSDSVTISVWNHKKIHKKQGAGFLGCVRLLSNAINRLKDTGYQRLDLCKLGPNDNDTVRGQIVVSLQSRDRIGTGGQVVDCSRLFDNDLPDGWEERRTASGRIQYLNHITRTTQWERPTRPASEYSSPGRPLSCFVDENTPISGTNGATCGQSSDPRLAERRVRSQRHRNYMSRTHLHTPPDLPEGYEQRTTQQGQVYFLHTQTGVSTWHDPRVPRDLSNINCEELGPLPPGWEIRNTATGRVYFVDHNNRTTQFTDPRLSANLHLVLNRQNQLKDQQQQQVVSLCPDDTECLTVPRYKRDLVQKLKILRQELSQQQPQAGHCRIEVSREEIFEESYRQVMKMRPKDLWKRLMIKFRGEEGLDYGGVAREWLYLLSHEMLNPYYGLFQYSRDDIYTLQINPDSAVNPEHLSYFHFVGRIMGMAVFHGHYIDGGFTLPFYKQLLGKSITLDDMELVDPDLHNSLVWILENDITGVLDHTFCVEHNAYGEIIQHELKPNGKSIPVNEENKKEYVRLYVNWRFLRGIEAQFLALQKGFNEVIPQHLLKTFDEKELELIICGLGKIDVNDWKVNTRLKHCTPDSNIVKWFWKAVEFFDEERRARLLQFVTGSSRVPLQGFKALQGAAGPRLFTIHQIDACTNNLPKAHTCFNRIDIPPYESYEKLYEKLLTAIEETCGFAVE

Columns and labels:
[1] = target: EZH2 (in 293T cells, co-IP of Figure 5E) (UniProt Q15910); experiment: co-IP; SMURF2 and EZH2 in 293T cells (endogenous or overexpressed not stated); IP buffer 150 mM NaCl, 50 mM Tris-HCl pH 8.0, 1% Nonidet P-40; Protein A/G magnetic beads; Western blot
[2] = target: Enhancer of zeste homolog 2 (EZH2) (human (endogenous in HN6 and CAL27)) (UniProt Q15910); experiment: co-IP; endogenous proteins in HN6 and CAL27 lysates; IP buffer 150 mM NaCl, 50 mM Tris-HCl pH 8.0, 1% Nonidet P-40; antibodies and Protein A/G magnetic beads at 4 °C overnight; Western blot
[3] = target: EZH2 (overexpressed in HEK293T cells) (UniProt Q15910); experiment: co-IP; p62 and EZH2 overexpressed alone or together in HEK293T cells; IP buffer 150 mM NaCl, 50 mM Tris-HCl pH 8.0, 1% Nonidet P-40; antibodies and Protein A/G magnetic beads at 4 °C overnight; Western blot

binding [1]: binds
Substance: SMURF2 (in 293T cells, co-IP of Figure 5E) (from UniProt Q9HAU4 1-748) (enzyme)

binding [2]: binds
Substance: p62 (from UniProt Q13501 1-440)

binding [3]: binds
Substance: p62 (overexpressed in HEK293T cells) (from UniProt Q13501 1-440)
